Laboratory results from publication PMC4882005.
Results are given in words; binding and its absence hold for the method and conditions named. Binding seen in cells or lysates may run through a third protein. Some results given as binding are weak or reduced against the parent protein; the word gives no strength.

The chains behind the UniProt entries cited, without tags or fusion partners. Where a name states a change or a piece, a line headed by the entry shows the natural chain unless it says otherwise.
UniProt Q9H172: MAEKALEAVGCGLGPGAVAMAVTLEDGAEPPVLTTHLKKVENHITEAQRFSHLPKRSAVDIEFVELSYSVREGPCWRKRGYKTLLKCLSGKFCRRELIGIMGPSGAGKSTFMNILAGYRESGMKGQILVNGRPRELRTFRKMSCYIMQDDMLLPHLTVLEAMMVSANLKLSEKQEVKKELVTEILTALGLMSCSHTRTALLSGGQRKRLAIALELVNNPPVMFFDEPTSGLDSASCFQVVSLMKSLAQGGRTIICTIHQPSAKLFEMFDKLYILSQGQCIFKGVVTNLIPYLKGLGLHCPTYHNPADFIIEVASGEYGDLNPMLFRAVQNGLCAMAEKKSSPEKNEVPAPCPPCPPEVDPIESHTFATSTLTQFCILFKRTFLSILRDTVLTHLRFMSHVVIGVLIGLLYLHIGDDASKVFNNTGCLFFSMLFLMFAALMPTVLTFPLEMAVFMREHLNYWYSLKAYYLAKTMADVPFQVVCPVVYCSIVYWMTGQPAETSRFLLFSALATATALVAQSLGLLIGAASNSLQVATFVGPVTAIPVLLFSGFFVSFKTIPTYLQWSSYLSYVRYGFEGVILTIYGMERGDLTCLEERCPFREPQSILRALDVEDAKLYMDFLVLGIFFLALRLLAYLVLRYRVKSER

Target: GFP-ABCG4 (UniProt Q9H172)
Assay: co-IP; HEK293 co-transfected with the GFP-tagged and the untagged protein (untagged in excess), lysed 24 h after transfection in 50 mM Tris pH 7.4, 150 mM NaCl, 0.5% NP-40; precipitated with anti-GFP on protein G-sepharose, 2 h at 4°C; Western blot of the precipitate

binding: binds
Substance: ABCG4 (wild type, untagged) (from UniProt Q9H172-1 1-646)
